# Test results: patent US11485744B2, “High penetration prodrug compositions of antimicrobials and antimicrobial-related compounds” (priority 2009, dated 2022)
# Details: human, 10 %, pH 7.4
# Method: Penetration rates of HPPs and their parent drugs through human skin were measured in vitro by modified Franz cells. A Franz cell had two chambers, the top sample chamber and the bottom receiving chamber. The human skin tissue (360-400 μm thick) that separated the top and the receiving chambers was isolated from the anterior or posterior thigh areas.
# A test compound (2 mL, 10% in 0.2 M phosphate buffer, pH 7.4) was added to the sample chamber of a Franz cell. The receiving chamber contained 10 ml of 0.2 M phosphate buffer which was stirred at 600 rpm. The amount of the tested compound penetrating the skin was determined by high-performance liquid chromatography (HPLC) method.
row,SMILES,"In vitro Penetration Rate (apparent flux), Parent compounds (sulfonamides, sulfones, quinolones) [mg/cm^2/h]"
1,"O=C(O)c1cn(C2CC2)c2cc(N3CCNCC3)c(F)cc2c1=O [Ciprofloxacin, 1-cyclopropyl-6-fluoro-4-oxo-7-piperazin-1-yl-quinoline-3-carboxylic acid]",<0.001
2,"Nc1ccc(S(N)(=O)=O)cc1 [sulfanilamide, 4-aminobenzenesulfonamide, reference compound]",<0.001
